Hillslope data for one compound are collected here from US11357752B2, “Carolacton and derivatives thereof for use in the treatment of cell proliferation disorders” (Helmholtz-Zentrum für Infektionsforschung GmbH, priority 2017, dated 2022).

Holding throughout (test): CellTiter-Glo luminescent cell viability assay
What all share (assay type): cell-based, human
For orientation: ATP-based viability assays read luminescence as a measure of living cells.

Data set [1] concerns NCI-N87 cells. To be noted: methanol. The method, then: (§1) To evaluate the effects of one compound on 7 cell lines with a CellTiter-Glo Luminescent Cell Viability Assay. Cells were treated with compounds for 72 hours at 37° C./5% CO2 incubator. Compound stock concentration was 20 mM, concentrations to be assayed 100\50\15\10.5\0.1\0.05\0.01\0.005 pM. • i) Materials and Reagents
(§2) a) Cells in log-phase are collected and counted. Cell suspensions are added to each well of 384-w plate at a suitable density. The margin wells are filled with PBS.
(§3) b) Test compound at various concentrations are added in duplicates
(§4) c) The cells were incubated for 72 h in 370/5% CO 2 incubator.
(§5) d) After incubation, CellTiter-Glo® Reagent is added to each test well and shack for 2 minutes on an orbital shaker.
(§6) e) The plates are shortly centrifuged at 90×g for 30 s and incubated at room temperature for additional 10 minutes to stabilize the luminescent signal.
(§7) f) Luminescence signals are detected on PHERAstar Plus.
(§8) g) Data is collected in Microsoft excel forms and analyzed with GraphPad Prism v.6 software. • iii) Data analysis
(§9) The potential effect of the testing compounds an cell proliferation was calculated by the formula below: Inhibition %=[…]
(§10) Since hsMTHFD2 is expressed in human mitochondria and overexpressed in many tumor cells we next aimed to evaluate its potential as an anticancer compound. To this end IC50 values for carolacton were determined for six different cancer cell lines as well as HUVEC cells as primary non-tumor cells. The CellTiter-Glo luminescent cell viability assay (Promega) was used on triplicate cultures grown for three days. Each cell line was tested in three independent experiments (performed at different times and by different experimentators): First, using natural carolacton purified from culture supernatants of Sorangium cellulosum and solved in methanol; second, using carolacton synthesized de novo according to Schmidt et al. 2012 and solved in DMSO; and third, using synthetic carolacton synthesized de novo according to Schmidt et al. 2012 and solved in methanol.

Data set [2] deals with SW626 cells. Here is the method:
as §1, §2, §3, §4, §5, §6, §7, §8, §9, §10

In data set [3] the test system is HCT 116 cells. The method, then:
as §1, §2, §3, §4, §5, §6, §7, §8, §9, §10

Data set [4] concerns THP-1 cells. The method, then: as §1, §2, §3, §4, §5, §6, §7, §8, §9, §10
In data set [5] the test system is HUVEC cells. The conditions noted are these: HUVEC (primary). The method, then:
as §1, §2, §3, §4, §5, §6, §7, §8, §9, §10

In data set [6] the test system is NK-92 cells. Here is the method:
as §1, §2, §3, §4, §5, §6, §7, §8, §9, §10

Take `CO[C@H](CC(=O)O)[C@@H](C)C(=O)[C@H](C)/C=C(\C)[C@H]1OC(=O)[C@H](O)[C@H](O)/C=C/[C@H](C)CCC[C@@H]1C` [Carolacton, carolacton]: the Hillslope in data set [1] (natural C) is reported as 2.62; in data set [1] (synthetic C), “=3.500”; in data set [2] (natural C, methanol), “=3.500”; in data set [2] (synthetic C, DMSO), “=3.500”; in data set [2] (synthetic C, methanol), “=3.500”; in data set [3] (natural C, methanol) it was “=3.500”. Further, the Hillslope result in data set [3] (synthetic C, DMSO) was “=3.500”; in data set [3] (synthetic C, methanol), “=3.500”; in data set [4] (THP 1, synthetic C, methanol), “=3.500”; in data set [4] (THP-1, natural C, methanol), 6.64; in data set [4] (THP-1, synthetic C, DMSO), 9.48E−05; in data set [5] (natural C, methanol), 0.45. The Hillslope in data set [5] (synthetic C, DMSO) amounted to 0.3523; in data set [5] (synthetic C, methanol), 0.2985; in data set [6] (natural C, methanol), 1.97; in data set [6] (synthetic C, methanal), 2.261.
